Results on eleven substances are retold here after publication doi:10.1101/2022.12.14.520480.

Chains of the proteins cited; added tags and fusions are not shown. Residues count along the entry.
UniProt Q9NT62: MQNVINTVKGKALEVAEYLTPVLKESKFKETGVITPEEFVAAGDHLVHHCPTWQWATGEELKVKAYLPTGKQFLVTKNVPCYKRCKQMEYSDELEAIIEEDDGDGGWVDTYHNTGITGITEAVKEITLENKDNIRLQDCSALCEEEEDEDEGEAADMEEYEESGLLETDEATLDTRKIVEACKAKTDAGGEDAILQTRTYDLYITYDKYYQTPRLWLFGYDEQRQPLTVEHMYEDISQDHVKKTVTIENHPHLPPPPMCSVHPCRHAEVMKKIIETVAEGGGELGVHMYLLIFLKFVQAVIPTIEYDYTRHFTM
UniProt P21281: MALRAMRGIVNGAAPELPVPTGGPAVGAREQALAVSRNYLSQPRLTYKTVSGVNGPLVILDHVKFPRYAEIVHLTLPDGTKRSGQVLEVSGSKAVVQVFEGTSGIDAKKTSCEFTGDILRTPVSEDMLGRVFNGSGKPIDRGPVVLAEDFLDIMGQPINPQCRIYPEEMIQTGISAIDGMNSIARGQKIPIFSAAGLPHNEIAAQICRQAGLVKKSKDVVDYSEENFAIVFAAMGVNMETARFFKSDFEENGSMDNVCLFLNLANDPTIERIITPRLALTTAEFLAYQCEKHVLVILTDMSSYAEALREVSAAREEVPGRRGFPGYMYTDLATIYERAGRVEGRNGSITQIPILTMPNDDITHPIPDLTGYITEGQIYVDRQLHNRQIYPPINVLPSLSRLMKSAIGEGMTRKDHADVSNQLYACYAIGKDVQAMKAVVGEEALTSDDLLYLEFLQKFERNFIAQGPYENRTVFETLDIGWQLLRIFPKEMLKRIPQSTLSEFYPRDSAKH
UniProt Q00610: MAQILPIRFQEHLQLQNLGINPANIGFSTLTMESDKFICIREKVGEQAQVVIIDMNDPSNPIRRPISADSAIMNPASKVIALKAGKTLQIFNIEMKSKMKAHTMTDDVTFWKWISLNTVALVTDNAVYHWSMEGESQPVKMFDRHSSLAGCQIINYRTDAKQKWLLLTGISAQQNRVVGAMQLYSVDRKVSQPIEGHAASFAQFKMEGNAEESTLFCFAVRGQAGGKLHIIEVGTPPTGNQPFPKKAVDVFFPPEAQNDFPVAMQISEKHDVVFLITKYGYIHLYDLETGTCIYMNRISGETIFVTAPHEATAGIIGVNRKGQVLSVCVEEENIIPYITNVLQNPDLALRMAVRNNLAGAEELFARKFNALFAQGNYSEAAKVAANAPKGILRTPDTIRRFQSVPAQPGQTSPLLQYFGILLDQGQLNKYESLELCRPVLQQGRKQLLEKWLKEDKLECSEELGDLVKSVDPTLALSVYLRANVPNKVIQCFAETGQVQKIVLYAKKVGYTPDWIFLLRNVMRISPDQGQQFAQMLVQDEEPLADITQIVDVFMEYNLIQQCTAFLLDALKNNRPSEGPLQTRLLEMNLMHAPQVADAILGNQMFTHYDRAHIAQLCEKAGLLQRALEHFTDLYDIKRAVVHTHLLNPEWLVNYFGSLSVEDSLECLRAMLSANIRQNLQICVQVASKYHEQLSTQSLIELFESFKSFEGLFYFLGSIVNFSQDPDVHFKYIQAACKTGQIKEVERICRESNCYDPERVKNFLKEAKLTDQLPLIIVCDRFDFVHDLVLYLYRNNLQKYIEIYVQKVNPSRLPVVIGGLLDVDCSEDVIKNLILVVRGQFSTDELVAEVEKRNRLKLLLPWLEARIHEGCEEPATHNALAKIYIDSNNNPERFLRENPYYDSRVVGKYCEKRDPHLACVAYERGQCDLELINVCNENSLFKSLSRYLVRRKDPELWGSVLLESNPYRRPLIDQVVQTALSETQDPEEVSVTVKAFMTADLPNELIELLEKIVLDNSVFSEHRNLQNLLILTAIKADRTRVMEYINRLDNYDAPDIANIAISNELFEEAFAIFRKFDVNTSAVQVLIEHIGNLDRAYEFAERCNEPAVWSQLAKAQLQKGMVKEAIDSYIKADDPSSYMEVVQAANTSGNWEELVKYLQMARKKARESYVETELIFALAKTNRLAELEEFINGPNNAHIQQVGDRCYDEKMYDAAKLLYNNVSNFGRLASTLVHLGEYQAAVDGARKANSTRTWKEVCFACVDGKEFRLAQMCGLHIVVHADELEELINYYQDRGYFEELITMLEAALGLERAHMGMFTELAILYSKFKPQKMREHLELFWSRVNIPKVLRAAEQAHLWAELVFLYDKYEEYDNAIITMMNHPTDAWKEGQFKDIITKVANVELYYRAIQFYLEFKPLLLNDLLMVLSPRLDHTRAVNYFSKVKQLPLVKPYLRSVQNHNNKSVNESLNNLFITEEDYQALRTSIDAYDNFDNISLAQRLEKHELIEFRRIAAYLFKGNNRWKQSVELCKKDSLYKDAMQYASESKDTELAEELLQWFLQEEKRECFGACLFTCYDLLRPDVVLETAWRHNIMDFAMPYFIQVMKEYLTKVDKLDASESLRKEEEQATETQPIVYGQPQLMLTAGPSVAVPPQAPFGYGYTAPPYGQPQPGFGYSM
UniProt P33176: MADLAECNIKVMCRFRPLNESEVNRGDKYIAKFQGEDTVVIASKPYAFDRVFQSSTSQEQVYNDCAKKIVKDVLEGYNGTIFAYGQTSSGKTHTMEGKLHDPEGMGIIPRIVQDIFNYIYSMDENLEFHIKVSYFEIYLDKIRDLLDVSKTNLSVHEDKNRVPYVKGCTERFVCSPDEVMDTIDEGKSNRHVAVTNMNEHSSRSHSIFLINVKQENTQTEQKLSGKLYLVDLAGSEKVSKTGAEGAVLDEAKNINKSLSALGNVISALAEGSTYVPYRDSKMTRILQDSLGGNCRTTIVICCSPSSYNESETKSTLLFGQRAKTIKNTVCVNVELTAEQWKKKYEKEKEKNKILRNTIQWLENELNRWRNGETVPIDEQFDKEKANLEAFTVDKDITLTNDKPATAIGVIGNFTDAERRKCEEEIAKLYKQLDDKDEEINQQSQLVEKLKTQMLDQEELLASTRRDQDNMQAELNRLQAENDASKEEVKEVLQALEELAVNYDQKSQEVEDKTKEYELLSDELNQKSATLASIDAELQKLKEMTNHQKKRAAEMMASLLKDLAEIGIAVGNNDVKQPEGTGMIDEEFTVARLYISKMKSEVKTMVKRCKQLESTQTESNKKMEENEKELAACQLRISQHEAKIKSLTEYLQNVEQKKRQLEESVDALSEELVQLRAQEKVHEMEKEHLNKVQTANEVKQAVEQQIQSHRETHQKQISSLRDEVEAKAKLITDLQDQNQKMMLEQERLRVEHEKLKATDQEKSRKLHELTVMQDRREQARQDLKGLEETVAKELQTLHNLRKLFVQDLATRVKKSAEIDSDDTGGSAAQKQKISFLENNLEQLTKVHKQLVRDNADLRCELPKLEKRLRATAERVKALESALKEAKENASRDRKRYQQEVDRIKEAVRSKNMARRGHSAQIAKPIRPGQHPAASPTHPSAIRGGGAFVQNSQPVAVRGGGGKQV
UniProt Q99755: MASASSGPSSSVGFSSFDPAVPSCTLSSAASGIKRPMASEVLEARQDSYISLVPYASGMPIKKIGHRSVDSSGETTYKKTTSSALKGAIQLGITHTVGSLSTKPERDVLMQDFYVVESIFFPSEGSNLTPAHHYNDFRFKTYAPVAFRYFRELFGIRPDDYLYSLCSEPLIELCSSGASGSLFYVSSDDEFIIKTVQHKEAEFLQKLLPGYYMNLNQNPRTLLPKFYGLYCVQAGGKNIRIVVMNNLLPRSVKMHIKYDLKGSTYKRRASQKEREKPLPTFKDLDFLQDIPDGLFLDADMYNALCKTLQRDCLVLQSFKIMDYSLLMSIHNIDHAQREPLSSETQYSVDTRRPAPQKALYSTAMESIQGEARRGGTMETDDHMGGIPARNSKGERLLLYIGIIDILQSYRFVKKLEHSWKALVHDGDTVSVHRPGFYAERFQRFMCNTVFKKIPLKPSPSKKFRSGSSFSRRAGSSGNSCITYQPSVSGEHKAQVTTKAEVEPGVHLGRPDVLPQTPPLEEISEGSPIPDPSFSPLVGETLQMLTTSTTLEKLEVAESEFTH
UniProt Q4KWH8: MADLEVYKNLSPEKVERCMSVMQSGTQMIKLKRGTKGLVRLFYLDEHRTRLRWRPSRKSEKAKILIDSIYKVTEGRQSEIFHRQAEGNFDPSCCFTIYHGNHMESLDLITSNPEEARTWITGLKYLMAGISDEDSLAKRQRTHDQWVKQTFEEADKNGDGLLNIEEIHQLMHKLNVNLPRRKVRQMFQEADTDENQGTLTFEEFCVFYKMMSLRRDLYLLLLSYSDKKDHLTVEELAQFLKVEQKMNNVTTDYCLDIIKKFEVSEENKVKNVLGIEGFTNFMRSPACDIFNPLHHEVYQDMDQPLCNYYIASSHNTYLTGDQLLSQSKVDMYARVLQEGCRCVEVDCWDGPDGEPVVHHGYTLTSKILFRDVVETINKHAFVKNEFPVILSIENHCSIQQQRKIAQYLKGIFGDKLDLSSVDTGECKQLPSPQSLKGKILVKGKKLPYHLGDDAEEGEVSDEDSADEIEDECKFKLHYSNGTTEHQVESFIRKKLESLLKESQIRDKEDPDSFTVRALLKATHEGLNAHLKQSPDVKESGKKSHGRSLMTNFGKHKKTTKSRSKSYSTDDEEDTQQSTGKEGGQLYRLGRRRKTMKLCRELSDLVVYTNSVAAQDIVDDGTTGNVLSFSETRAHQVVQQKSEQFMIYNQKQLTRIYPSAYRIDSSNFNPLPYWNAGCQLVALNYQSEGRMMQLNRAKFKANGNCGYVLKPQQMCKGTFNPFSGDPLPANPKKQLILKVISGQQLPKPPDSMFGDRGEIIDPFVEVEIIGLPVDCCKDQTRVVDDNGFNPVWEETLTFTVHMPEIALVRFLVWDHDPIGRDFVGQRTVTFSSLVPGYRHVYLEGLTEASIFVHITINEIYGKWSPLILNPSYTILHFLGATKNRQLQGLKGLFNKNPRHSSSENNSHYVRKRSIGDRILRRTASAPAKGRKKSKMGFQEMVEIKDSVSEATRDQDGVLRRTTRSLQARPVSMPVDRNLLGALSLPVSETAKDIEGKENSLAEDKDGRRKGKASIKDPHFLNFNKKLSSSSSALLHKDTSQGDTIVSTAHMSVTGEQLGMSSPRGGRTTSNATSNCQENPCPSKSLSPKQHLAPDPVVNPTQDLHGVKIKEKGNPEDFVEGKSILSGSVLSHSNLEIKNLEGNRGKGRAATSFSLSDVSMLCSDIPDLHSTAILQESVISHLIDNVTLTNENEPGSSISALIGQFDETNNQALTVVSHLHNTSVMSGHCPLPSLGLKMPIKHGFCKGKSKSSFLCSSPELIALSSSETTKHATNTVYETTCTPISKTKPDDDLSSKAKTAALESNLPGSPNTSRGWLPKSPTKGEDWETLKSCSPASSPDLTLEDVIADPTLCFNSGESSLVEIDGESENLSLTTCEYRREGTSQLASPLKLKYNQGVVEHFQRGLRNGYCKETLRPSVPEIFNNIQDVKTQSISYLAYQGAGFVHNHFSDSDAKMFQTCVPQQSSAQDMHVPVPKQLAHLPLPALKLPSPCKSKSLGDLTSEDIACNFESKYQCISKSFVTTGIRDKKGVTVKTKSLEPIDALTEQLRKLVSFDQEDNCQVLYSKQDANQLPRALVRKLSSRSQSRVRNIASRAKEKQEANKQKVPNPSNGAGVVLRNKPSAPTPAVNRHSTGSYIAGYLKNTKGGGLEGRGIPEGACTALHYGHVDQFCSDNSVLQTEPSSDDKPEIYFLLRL
UniProt Q9P0T7, residues 21-183: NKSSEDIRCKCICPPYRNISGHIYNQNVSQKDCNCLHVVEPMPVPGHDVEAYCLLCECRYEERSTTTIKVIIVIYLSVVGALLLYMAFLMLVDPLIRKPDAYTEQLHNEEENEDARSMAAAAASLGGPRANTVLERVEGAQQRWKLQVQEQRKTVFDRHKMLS

Like-named read-outs stand apart in the source and are kept apart here. No constants are given. Whether binding was seen depends on the method and setting. In cells and extracts the contact can be indirect. Here binding means that the protein was enriched with, or labelled near, the bait; the list need not be complete. For some assays here: Tags and fused reporters may be left off the sequences shown.

One assay concerns the target T1, LAMP1-APEX2 (UniProt P11279).
T1 sequence: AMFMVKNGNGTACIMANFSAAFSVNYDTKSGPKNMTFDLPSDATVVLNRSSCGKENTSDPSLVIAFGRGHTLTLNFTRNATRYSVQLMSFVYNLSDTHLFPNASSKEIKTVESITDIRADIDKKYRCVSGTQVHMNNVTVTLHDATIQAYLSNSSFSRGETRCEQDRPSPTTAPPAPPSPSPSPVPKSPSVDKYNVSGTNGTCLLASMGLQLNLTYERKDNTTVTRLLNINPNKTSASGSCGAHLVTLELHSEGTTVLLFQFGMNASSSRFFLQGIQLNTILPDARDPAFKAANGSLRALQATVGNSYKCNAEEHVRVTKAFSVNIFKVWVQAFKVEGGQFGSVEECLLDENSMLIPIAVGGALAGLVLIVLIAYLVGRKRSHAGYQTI
Nature of the assay: proximity labelling.

Assay [1] addresses T2, APEX2-TBC1D15 (UniProt Q8TC07).
T2 sequence: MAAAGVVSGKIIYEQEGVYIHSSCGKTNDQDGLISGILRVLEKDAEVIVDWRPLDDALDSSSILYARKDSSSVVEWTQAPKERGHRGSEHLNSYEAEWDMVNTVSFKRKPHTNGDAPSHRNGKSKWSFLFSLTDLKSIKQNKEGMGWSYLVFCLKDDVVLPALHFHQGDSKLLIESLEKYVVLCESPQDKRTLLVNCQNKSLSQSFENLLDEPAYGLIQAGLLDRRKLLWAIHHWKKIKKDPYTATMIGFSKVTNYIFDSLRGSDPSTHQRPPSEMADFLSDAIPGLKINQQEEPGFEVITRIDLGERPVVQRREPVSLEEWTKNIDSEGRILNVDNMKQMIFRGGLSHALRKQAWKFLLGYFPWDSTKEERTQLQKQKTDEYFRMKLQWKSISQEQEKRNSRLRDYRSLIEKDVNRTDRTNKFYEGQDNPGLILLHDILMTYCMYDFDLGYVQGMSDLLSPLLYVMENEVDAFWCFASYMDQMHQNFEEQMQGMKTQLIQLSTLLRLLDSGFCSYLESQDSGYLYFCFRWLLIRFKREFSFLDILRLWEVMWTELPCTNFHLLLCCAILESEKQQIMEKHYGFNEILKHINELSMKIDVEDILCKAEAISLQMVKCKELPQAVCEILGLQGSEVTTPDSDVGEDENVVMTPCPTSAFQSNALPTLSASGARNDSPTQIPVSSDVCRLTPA
Nature of the assay: proximity labelling.

The target of another assay is T3, TBC1D15-GFP wild type (UniProt Q8TC07).
T3 sequence: T2 sequence
Nature of the assay: affinity purification with mass spectrometry.

Assay [2] has as its target T2, APEX2-TBC1D15. Nature of the assay: proximity labelling. This is another data set of the same source.

Regarding ATG3 (from UniProt Q9NT62 1-314), the binding result in the assay with LAMP1-APEX2 and in the assay with APEX2-TBC1D15 [1] was “binds” each time.
For the substance “ATP6V1B2 (endogenous) (from UniProt P21281 1-511)”, the binding result with APEX2-TBC1D15 [1] is given as “binds”.
For the substance “Clathrin heavy chain CLTC (endogenous) (from UniProt Q00610 1-1675)”, the binding result in the assay with APEX2-TBC1D15 [1], with TBC1D15-GFP wild type and with APEX2-TBC1D15 [2] was “binds” throughout.
KIF1A (from UniProt Q12756 1-1690): the binding entry in the assay with APEX2-TBC1D15 [1] was “binds”.
“KIF5B (endogenous) (from UniProt P33176 1-963)”: the binding result in the assay with APEX2-TBC1D15 [1], with TBC1D15-GFP wild type and with APEX2-TBC1D15 [2] was “binds” throughout.
For the substance PIP5K1A (from UniProt Q99755 1-562), the binding entry in the assay with LAMP1-APEX2 is reported as “binds”.
For PLCH1 (from UniProt Q4KWH8 1-1693), in the assay with APEX2-TBC1D15 [1], the binding result is reported as “binds”.
For the substance RB1CC1 (from UniProt Q8TDY2 1-1594), the binding result in the assay with LAMP1-APEX2 and with APEX2-TBC1D15 [1] was “binds” throughout.
Regarding Rab7 (human (endogenous in HeLa)), in the assay with LAMP1-APEX2, the binding entry is on record as “binds”.
As to TMEM9 (from UniProt Q9P0T7 21-183), in the assay with APEX2-TBC1D15 [1], the binding entry was “binds”.
Turning to VPS13C (from UniProt Q709C8 1-3753), in the assay with LAMP1-APEX2, the binding entry is on record as “binds”.
